Results on 58 compounds are retold here after PubChem BioAssay AID2685 (National Center for Advancing Translational Sciences (NCATS), 2010).

One may read the AC50 as the midpoint of the concentration-response curve, whichever way the signal moves.

This test can be described thus: qHTS Assay for Lipid Storage Modulators in Drosophila S3 Cells.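 As to cell number change: cells counted by Cell Tracker Red CMTPX staining in the red channel.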 The settings on record: BODIPY lipid droplet fluorescence, 18-24 h; for cell number change: measured here: cell count max response, cells fed with added oleic acid. In short, it runs like this: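 Drosophila S3 cells got compounds at several concentrations plus oleic acid (400 uM solution). Laser-scanning cytometry with 488 nm excitation read lipid droplets at 500-530 nm and cells at 575-640 nm. Percent activity was relative to 20 uM Triacsin C.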
For orientation: Quantitative high-throughput screening tests each substance at several concentrations.

Setting [1] is: measured here: cell number channel AC50, cells fed with added oleic acid.
Where [2] appears, read: measured here: lipid fluorescence (Fed channel) AC50, cells fed with added oleic acid.

Some of the results follow. These are further read-outs of the screen, such as a control signal, another cell line or another target. No call is given for them. The list favours compounds with an active or inconclusive main result. Words in brackets tell the shape of the fitted curve; partial curves, single points and poor fits give uncertain potencies.

`CC(C)CCNC(=O)C(c1ccco1)N(Cc1ccccc1)C(=O)c1snc(C(N)=O)c1N` (stereo unspecified): the cell number change came out at 33.4%. In addition, the AC50 under setting [1] was 23.1 µM [rising, single point]. Further, the AC50 under setting [2] is 2.91 µM [rising, single point].

As to `Cc1ccc(NC(=O)CN(C)CC(=O)Nc2cccc(F)c2)cc1[N+](=O)[O-]`, the cell number change is -33.1%. In addition, the AC50 under setting [1] was 2.91 µM [falling, full curve].

`COCCN(C(=O)COC(=O)COc1ccc(Cl)c(C)c1)c1c(N)n(Cc2ccccc2)c(=O)[nH]c1=O`: the half-maximal activity concentration (AC50) under setting [2] was 20 µM [rising, single point].

On to `CC1CCC(C(C)C)C(OCC(O)CN2CCCC(C)C2)C1` (stereo unspecified), for which the cell number change was -19.7%. For the same compound, the AC50 under setting [2] is 0.651 µM [falling, single point].

`O=C(CCCOc1ccc(Cl)cc1Cl)N/N=C/c1ccccc1O`: the cell number change was -38.5%. The AC50 under setting [1] is 20.6 µM [falling, partial curve]. Besides, the AC50 under setting [2] is 18.4 µM [falling, partial curve].

In the case of `COc1ccc(CN(C(=O)CCC(=O)Nc2cc(C)on2)C(C(=O)NC(C)(C)C)c2cccc(OC)c2OC)cc1` (stereo unspecified), the cell number change was found to be 10.4%.

With `CN(CC(=O)Nc1cccc(F)c1)CC(=O)N(C)CC(=O)Nc1ccccc1Br`, the cell number change was -31.6%. The AC50 under setting [1] is 25.9 µM [falling, single point].

Turning to `COCCN(C(=O)COC(=O)C1=COCCO1)c1c(N)n(Cc2ccccc2)c(=O)[nH]c1=O`, the cell number change is 15.6%. Besides, the AC50 under setting [2] is 32.6 µM [rising, partial curve, poor fit].

With `CC(=O)Nc1ccc(S(=O)(=O)Nc2nccc(/C=C/c3ccc(Cl)cc3)n2)cc1`, the cell number change is -20.5%. Moreover, the AC50 under setting [1] is 0.411 µM [falling, full curve, poor fit].

With `CC(=O)Nc1ccc(S(=O)(=O)NNC(=S)NCc2ccco2)cc1`, the cell number change was -0.274%. The AC50 under setting [2] is 29.1 µM [falling, single point].

`CC(NC(=O)CCn1c(=S)[nH]c2ccsc2c1=O)c1ccccc1` (stereo unspecified): the cell number change was 49.6%. In addition, under setting [1], the AC50 is 4.11 µM [rising, partial curve, poor fit]. In addition, the half-maximal activity concentration (AC50) under setting [2] was 1.46 µM [rising, partial curve].

Consider `CC(=O)OCCN(CCCn1c(-c2ccncc2)nc2ccccc21)c1nc(-c2ccc(C)cc2)cs1`, for which the cell number change came to 8.08%.

Regarding `COc1ccc([N+](=O)[O-])cc1NC(=O)Cn1ccc(C(F)(F)F)n1`, the cell number change is 24.2%. For the same compound, the AC50 under setting [1] is 1.16 µM [rising, full curve, poor fit]. Moreover, under setting [2], the AC50 was 1.64 µM [rising, full curve].

On to `O=C(COc1coc(CN2CCCc3ccccc32)cc1=O)Nc1cccc([N+](=O)[O-])c1`, for which the cell number change is -53.5%. Moreover, the AC50 under setting [1] is 10.3 µM [falling, partial curve]. Besides, under setting [2], the AC50 is 29.1 µM [falling, single point].

As for `CCc1oc2c(C)c(O)ccc2c(=O)c1-c1ccc2ccccc2n1`, the cell number change turned out to be 1.66%. Besides, under setting [2], the AC50 was 23.1 µM [falling, partial curve, poor fit].

As to `CCCCOC(=O)Nc1sc2c(c1C(=O)OC)CCC2`, the cell number change was -14.4%.

Turning to `NC(=O)Cn1cnc(-c2ccccc2)c1`, the cell number change was -2.74%. For the same compound, the AC50 under setting [2] is 1.16 µM [falling, full curve, poor fit].

Turning to `Oc1ccccc1C(=S)N1CCCC1`, the cell number change is 1.46%. Further, the AC50 under setting [2] was 29.1 µM [rising, single point].

For the compound `COc1cccc(OC)c1C(=O)Nc1cccc2c1CCCC2`, the cell number change is 1.09%. In addition, the AC50 under setting [2] was 29.1 µM [rising, single point].

`CCN(Cc1ccccc1)C(=O)CN1C(=O)c2ccccc2C1=O`: the cell number change is 3.97%.

Regarding `CCOP(=O)(c1c(F)c(F)c(F)c(F)c1F)C1(O)CCCCC1` (stereo unspecified), the cell number change was -33.6%. Also, under setting [1], the AC50 is 11.6 µM [falling, partial curve, poor fit]. Under setting [2], the AC50 is 8.2 µM [falling, partial curve].

Take `O=C(CSc1nc(N2CCCCC2)nc(N2CCCCC2)n1)c1ccccc1`: the cell number change was -5.62%. Further, under setting [2], the AC50 was 29.1 µM [rising, partial curve, poor fit].

Consider `CCOC(=O)C1CCN(C(=O)CNS(=O)(=O)c2cccs2)CC1`, for which the cell number change is -23.3%. Moreover, the AC50 under setting [1] is 0.651 µM [falling, full curve, poor fit]. Moreover, the AC50 under setting [2] is 3.66 µM [falling, full curve].

Take `COc1ccc(CN2CCNC(=O)C2CC(=O)N2CCCN(C(C)=O)CC2)c(OC)c1` (stereo unspecified): the cell number change is 18%.

`COc1ccc(NC(=O)c2nc3nccc(C)n3n2)cn1`: the cell number change came to 92%. Besides, the AC50 under setting [1] was 29.1 µM [rising, single point].

As for `COc1ccc(CCNC(=O)C2CCN(S(=O)(=O)c3cccc4cccnc34)CC2)cc1OC`, the cell number change was -36.3%. Moreover, under setting [1], the AC50 was 14.6 µM [falling, single point].

As to `CC(C(=O)NCc1ccccc1)n1cc([N+](=O)[O-])cn1` (stereo unspecified), the cell number change was -12.1%. For the same compound, the AC50 under setting [2] was 6.51 µM [falling, single point].

With `Cc1cccnc1NC(=O)C1CCCN(S(=O)(=O)c2ccc3c(c2)oc(=O)n3C)C1` (stereo unspecified), the cell number change is 6.72%.

Turning to `COC(CNS(=O)(=O)c1ccc(Cl)cc1)c1ccccc1` (stereo unspecified), the cell number change was -23.4%. Moreover, the AC50 under setting [2] is 29.1 µM [falling, single point].

`CN(C)S(=O)(=O)c1ccc(C(=O)Nc2ccc(F)cc2F)cc1`: the cell number change turned out to be 17.5%.

Take `CC1(C)CC(c2nc(-c3ccc(Cl)cc3)cs2)CCS1` (stereo unspecified): the AC50 is, setting by setting: under setting [1], 0.58 µM [rising, partial curve]; under setting [2], 4.11 µM [rising, single point].

Consider `O=C1O[C@@H](c2ccc(O)cc2)Cc2cccc(O)c21`, for which the cell number change was -3.49%. Besides, under setting [2], the AC50 was 0.00651 µM [rising, full curve, poor fit].

As to `N=c1oc2ccccc2cc1C(=O)Nc1cccc(F)c1`, the cell number change is 1.42%. Also, under setting [2], the AC50 is 29.1 µM [rising, single point].

As for `COc1ccc(-c2csc3ncnc(N4CCN(S(=O)(=O)c5ccc(C(C)=O)cc5)CC4)c23)cc1`, the cell number change is -36.3%. Further, the AC50 under setting [1] is 32.6 µM [falling, single point].

Take `CCC(=O)N1CCN(c2ccc(NC(=S)NC(=O)c3ccc(OC)c([N+](=O)[O-])c3)cc2)CC1`: the cell number change was -61.3%. Moreover, the AC50 under setting [1] was 11.6 µM [falling, partial curve]. The AC50 under setting [2] was 8.2 µM [falling, partial curve].

On to `O=C(O)CCCc1c(-[n+]2ccccc2)[nH]c2ccccc12`, for which the cell number change was determined as 21.9%.

`CC(=O)Nc1cc(NC(C)=O)c(N=Nc2ccccc2)cc1C`: the cell number change was determined as 5.76%. Also, the AC50 under setting [2] is 2.91 µM [rising, single point].

In the case of `Cc1ccc(-n2cc(C(C)(C)C)[nH]c2=S)cc1`, the cell number change is -23.6%. Further, under setting [2], the half-maximal activity concentration (AC50) was 29.1 µM [falling, single point].

On to `O=C(N/N=C/c1c[nH]c2ccccc12)C1CC1(c1ccccc1)c1ccccc1` (stereo unspecified), for which the cell number change was -72.3%. Under setting [1], the AC50 was 18.4 µM [falling, partial curve]. Besides, under setting [2], the AC50 is 18.4 µM [falling, single point].

On to `O=C1CCC(=O)N1CCC(c1ccc(F)cc1)c1ccco1` (stereo unspecified), for which the cell number change was -4.03%. Also, the AC50 under setting [1] was 7.31 µM [falling, partial curve, poor fit]. For the same compound, the AC50 under setting [2] was 0.13 µM [falling, full curve, poor fit].

In the case of `Cc1cc(C(=O)OCC(=O)N2CCCC2)c2ccccc2n1`, the cell number change is 124%. Further, the AC50 under setting [1] is 11.6 µM [rising, partial curve].

Consider `N#Cc1c(Nc2ccccc2C(F)(F)F)s[nH]c1=O`, for which the cell number change is -59.8%. Under setting [1], the AC50 was 16.4 µM [falling, partial curve]. Under setting [2], the AC50 is 16.4 µM [falling, partial curve, poor fit].

For `COc1cccc(/C=N/n2c(N)nc3ccccc32)c1OC`, the cell number change is -18.3%.

Take `O=C(Cc1ccc(Cl)c(Cl)c1)OCC(=O)c1ccc[nH]1`: the cell number change is -27.3%. Besides, the concentration at half-maximal activity (AC50) under setting [2] is 0.206 µM [rising, full curve, poor fit].

In the case of `CC(CCc1ccccc1)NC(=O)C1CCN(S(=O)(=O)N2CCCCC2)CC1` (stereo unspecified), the cell number change amounted to 6.88%. For the same compound, the AC50 under setting [2] was 25.9 µM [rising, single point].

In the case of `CN(C)CC(C)(C)CNC(=S)NCc1ccc2c(c1)OCO2`, the cell number change was 0.628%. Besides, the AC50 under setting [2] is 1.84 µM [rising, partial curve].

On to `COCCNC(=O)c1ccc2c(c1)ncn2-c1cccc(C)c1`, for which the AC50 under setting [2] is 5.8 µM [rising, full curve, poor fit].

In the case of `CC(C)c1ccccc1NC(=O)COc1ccc(C(=O)NCCc2ccccc2)cc1`, the cell number change is -34.3%. Moreover, the AC50 under setting [1] was 16.4 µM [falling, single point]. Further, the AC50 under setting [2] is 18.4 µM [falling, single point].

In the case of `O=C(O)CCCN1C(=O)/C(=C\c2ccc(-c3nc4ccccc4s3)o2)SC1=S`, the cell number change came to 18.4%.

As to `Cc1ccc(-c2csc(N3N=C(c4ccccc4)/C(=C\c4ccc(N(C)C)cc4)C3=O)n2)cc1`, the cell number change is -22.1%.

In the case of `NC(=O)c1ccsc1NC(=O)c1nc(-c2ccccc2)n(-c2ccccc2)n1`, the cell number change was found to be 35.1%. Moreover, the AC50 under setting [1] is 2.31 µM [rising, partial curve]. In addition, the AC50 under setting [2] was 0.58 µM [rising, single point].

Consider `O=C(Cn1c2ccc(F)cc2c2nc3n(c(=O)c21)CCS3)N1CCCC1`, for which the cell number change is -19%.

In the case of `O=C(N/N=C/c1cc2ccccc2nc1Cl)[C@H]1C[C@@H]1c1ccccc1`, the cell number change was -9.51%. Also, the half-maximal activity concentration (AC50) under setting [1] was 3.66 µM [rising, single point]. Also, the half-maximal activity concentration (AC50) under setting [2] was 4.11 µM [rising, partial curve].

As for `CCOC(=O)c1cc(-c2ccccc2)sc1NC(=S)Nc1cccc(C)n1`, the cell number change came out at 30.8%. Under setting [1], the AC50 was 1.46 µM [rising, partial curve, poor fit].

`COc1ccc(Cc2nnc(NC(=O)c3cccs3)s2)cc1OC`: the cell number change is 2.84%. The AC50 under setting [2] was 5.8 µM [falling, single point].

`COc1cc2c(cc1OC)/C(=C/C(=O)c1ccc(OC)c([N+](=O)[O-])c1)NCC2`: the cell number change is 41.1%. Under setting [1], the half-maximal activity concentration (AC50) was 1.16 µM [rising, single point]. In addition, the half-maximal activity concentration (AC50) under setting [2] is 20.6 µM [rising, partial curve, poor fit].

As to `Cc1occc1C(=O)NCCc1cccc(Cl)c1`, the cell number change was -4.87%.

With `CCCCCC1CC(/C(C)=N/NC(N)=O)OC1=O` (stereo unspecified), the cell number change came out at 4.87%. For the same compound, the concentration at half-maximal activity (AC50) under setting [2] was 0.82 µM [rising, full curve, poor fit].
